No constants are given. Whether binding was seen depends on the method and setting. In cells and extracts the contact can be indirect. Some results given as binding are weak or reduced against the parent protein; the word gives no strength.
Key:
[1] = target: HA-CHIP wild-type (carboxyl-terminus of Hsp70 interacting protein) (UniProt Q9UNE7); experiment: co-IP; rADSCs transfected for 24 h with HA-vector, HA-CHIP wild-type or HA-CHIP-K30A; lysate in 20 mM Tris-HCl pH 7.5, 1% NP-40, 150 mM NaCl, 1 mM EDTA; 400 ug protein; precipitated with anti-HA antibody (results), protein G magnetic beads, overnight at 4°C
[2] = target: HA-CHIP-K30A (TPR mutant) (UniProt Q9UNE7); experiment: as above
[3] = target: HA-CHIP wild-type (carboxyl-terminus of Hsp70 interacting protein) (UniProt Q9UNE7); experiment: co-IP; another co-IP in rADSC lysate with CHIP overexpression (Supplementary Figure 1E); the methods name an anti-CHIP antibody, protein G magnetic beads, overnight at 4°C

Chains of the proteins cited; added tags and fusions are not shown. Lines headed by an entry give the natural chain unless they say otherwise; changes in a name come on top. Residues count along the entry.
UniProt Q9UNE7: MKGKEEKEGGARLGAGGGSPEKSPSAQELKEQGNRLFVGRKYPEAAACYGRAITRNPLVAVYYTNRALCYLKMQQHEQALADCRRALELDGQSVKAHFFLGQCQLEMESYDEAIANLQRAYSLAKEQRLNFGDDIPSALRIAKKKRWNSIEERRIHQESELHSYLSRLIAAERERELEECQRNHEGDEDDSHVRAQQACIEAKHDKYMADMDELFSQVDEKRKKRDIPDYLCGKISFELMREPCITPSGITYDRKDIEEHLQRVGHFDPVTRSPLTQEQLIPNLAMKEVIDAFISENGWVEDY
UniProt P24062, residues 742-1370: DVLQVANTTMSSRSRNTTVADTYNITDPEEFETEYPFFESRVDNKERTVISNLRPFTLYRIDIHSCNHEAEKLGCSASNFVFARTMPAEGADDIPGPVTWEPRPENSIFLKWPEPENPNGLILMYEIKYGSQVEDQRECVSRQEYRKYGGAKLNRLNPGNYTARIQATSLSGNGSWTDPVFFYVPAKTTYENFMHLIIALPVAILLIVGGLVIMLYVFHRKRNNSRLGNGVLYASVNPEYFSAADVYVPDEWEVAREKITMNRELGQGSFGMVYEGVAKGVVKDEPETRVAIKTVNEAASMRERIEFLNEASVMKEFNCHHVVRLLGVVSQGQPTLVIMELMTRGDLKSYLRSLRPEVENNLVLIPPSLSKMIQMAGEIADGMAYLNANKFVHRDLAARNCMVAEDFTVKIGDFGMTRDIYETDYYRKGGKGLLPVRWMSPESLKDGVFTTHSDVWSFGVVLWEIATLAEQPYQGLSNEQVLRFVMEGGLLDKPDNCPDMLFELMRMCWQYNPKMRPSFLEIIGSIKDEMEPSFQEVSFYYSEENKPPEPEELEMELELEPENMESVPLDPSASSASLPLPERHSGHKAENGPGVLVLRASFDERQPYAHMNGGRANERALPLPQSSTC

IGF1Rβ (beta subunit of the insulin-like growth factor-1 receptor) (from UniProt P24062 742-1370)
binding [1]: binds
binding [2]: no binding
binding [3]: binds
